System: pulmonary fibrosis induced by bleomycin in rat
Assay: Asiatic acid in bleomycin-induced pulmonary fibrosis rat model
Assay type: in vivo, SD male rats
Settings: mean
From the text: The pulmonary fibrosis animal model was induced by bleomycin in rat according to the methods described by Lazo J S, Hoyt D G, Sebti S M, Pitt B R. in Pharmacol Ther. 1990: 47:347-58. In this article, praquat, bleomycin and amiodrone are three routinely used chemical agent to induce lung fibrosis is rodents, e.g. mice, rat and Chinese hamsters as well as primates, e.g. baboon and cynomolgous monkey etc. there are also reports describing using rabbit or dog as model animal for such study. Different groups were able to generate lung fibrosis in animal models through different administration routes. For example, 3 various pulmonary fibrosis animal models using Co^60 to radiate rat, bleomycin or CCl4 injection into abdominal cavity of mice or rat respectively were generated. […] Specifically, diffusive stromal lung fibrosis model induced by tracheal bleomycin dripping is the most commonly used animal model. The advantage of this method is that the model can be obtained with once bleomycin dripping without repeated venous or abdominal injections, therefore limiting the influences to other organs caused by systematic administrations. It also lowers the experimental cost. The development of pulmonary fibrosis from alveolitis can be observed in 4 weeks, which is very similar to the pulmonary fibrosis pathological development in human being.
1. Animal: SD male rats with weight raging between 200-250 g, purchased from SLAC.
3. Dosage: Asiatic acid, 3, 9, […], po for 28 days.
Male SD rats were lay down flat on operating table and anesthetize with 3% Secobarbital. The trachea was exposed after sterilization of cervical part with alcohol. The needle was then inserted into tracheal cartilage interspace. Bleomycin at 5 mg/kg was dipped in. Afterwards, the rats were reared to evenly distribute bleomycin in the lung. The trachea was then sutured. […] The regimen was initiated on the second day. Sham-operated and untreated group received saline. After 28 days of treatment, lung weight, hydroyproline content, pathological section and CT scan were measured or conducted.
After 28 days on asiatic acid, rats were sacrificed and dissected. The body and lung weight were measured respectively and used to calculate lung weigh coefficient.
After 28 days on Asiatic acid, hydroxyproline content in lung was measured. The results are as follows:
After 28 days on asiatic acid, lung CT scans were performed to each group of experimental rats.
After 28 days on asiatic acid, the rats were sacrificed and dissected. Both lungs were harvested. The specimen were embedded and fixed then subjected to HE staining. The focus of infection were observed under microscope with ⅓, ⅔ and 3/3 Vf*10 to conduct semi-quantative analysis.

C[C@@H]1C[C@H]2[C@@H]3CCC4=CC(=O)C=C[C@]4(C)[C@@]3(F)[C@@H](O)C[C@]2(C)[C@@]1(O)C(=O)CO [Dexmethasone, Dexamethasone, reference compound]
Body Weight (first experiment, dexmethasone 0.6 mg/kg po 28 days): 269.40 g
Body Weight (second experiment, dexmethasone 0.6 mg/kg po 28 days): 253.77 g
Body Weight (third experiment, dexmethasone 0.6 mg/kg po 28 days): 269.40 g

C[C@H]1[C@H](C)CC[C@]2(C(=O)O)CC[C@]3(C)C(=CC[C@@H]4[C@@]5(C)C[C@@H](O)[C@H](O)[C@@](C)(CO)[C@@H]5CC[C@]43C)[C@H]12 [Asiatic acid, asiatic acid]
Body Weight (first experiment, asiatic acid high dose 27 mg/kg po 28 days): 334.00 g
Body Weight (first experiment, asiatic acid low dose 3 mg/kg po 28 days): 322.22 g
Body Weight (first experiment, asiatic acid medium dose 9 mg/kg po 28 days): 311.78 g
Body Weight (second experiment, asiatic acid high dose 27 mg/kg po 28 days): 349.08 g
Body Weight (second experiment, asiatic acid low dose 3 mg/kg po 28 days): 307.37 g
Body Weight (second experiment, asiatic acid medium dose 9 mg/kg po 28 days): 315.81 g
Body Weight (third experiment, asiatic acid high dose 27 mg/kg po 28 days): 334.00 g
Body Weight (third experiment, asiatic acid low dose 3 mg/kg po 28 days): 322.22 g
Body Weight (third experiment, asiatic acid medium dose 9 mg/kg po 28 days): 311.78 g
